Reference: PMC3718744
Results are given in words; binding and its absence hold for the method and conditions named. Binding seen in cells or lysates may run through a third protein. Some results given as binding are weak or reduced against the parent protein; the word gives no strength. Tags and fused reporters may be left off the sequences shown.

By UniProt entry, the sequences of proteins in these tests, tags left out.
UniProt O15392: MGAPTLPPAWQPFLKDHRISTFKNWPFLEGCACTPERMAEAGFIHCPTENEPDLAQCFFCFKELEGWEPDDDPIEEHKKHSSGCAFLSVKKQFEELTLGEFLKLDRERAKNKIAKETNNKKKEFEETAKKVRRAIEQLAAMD

Target: T1, Flag-RecQL4 (full length) (human) (UniProt O94761)
T1 sequence: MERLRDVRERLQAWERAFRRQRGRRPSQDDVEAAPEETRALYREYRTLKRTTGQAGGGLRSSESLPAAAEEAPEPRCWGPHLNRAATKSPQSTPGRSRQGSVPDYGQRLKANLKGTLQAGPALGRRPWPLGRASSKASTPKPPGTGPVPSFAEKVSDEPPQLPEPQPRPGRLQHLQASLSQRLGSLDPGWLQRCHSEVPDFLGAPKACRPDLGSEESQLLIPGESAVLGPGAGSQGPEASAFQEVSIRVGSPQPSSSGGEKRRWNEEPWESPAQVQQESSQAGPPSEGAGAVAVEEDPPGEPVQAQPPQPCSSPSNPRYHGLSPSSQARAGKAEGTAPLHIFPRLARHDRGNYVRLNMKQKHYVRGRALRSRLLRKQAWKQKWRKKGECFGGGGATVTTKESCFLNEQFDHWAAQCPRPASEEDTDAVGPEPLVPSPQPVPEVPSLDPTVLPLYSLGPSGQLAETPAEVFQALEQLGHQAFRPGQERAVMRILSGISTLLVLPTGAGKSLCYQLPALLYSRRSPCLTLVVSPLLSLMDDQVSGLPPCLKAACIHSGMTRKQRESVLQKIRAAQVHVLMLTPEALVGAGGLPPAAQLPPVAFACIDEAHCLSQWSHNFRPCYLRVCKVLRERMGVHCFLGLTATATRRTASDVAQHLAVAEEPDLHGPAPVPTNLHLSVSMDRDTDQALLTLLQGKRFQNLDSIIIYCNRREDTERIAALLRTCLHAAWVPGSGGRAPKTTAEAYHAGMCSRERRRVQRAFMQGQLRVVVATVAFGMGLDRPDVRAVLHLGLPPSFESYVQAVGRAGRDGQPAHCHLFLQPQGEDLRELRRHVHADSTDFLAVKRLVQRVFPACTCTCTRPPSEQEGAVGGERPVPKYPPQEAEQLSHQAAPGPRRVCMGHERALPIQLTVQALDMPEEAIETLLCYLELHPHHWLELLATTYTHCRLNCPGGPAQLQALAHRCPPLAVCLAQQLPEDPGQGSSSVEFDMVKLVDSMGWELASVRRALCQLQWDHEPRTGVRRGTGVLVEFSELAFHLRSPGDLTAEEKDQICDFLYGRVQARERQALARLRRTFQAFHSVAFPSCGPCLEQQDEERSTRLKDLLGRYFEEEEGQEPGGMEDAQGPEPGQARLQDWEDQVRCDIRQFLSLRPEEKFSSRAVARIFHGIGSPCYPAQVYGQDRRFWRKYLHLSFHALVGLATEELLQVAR
Test: co-IP; lysates of 10^6 transfected U2OS cells (Flag-tagged bait, endogenous prey); anti-Flag-M2 magnetic beads, 4°C, 2 h; lysis buffer 50 mM Tris-HCl pH 7.5, 150 mM NaCl, 1% NP-40, 5 mM EDTA, 5 mM EGTA; Western blot

In the case of “endogenous survivin (from UniProt O15392 1-142)”, the binding is reported as “binds”.
